Test results as given in article PMC9323240.
Results are given in words; binding and its absence hold for the method and conditions named. A result given as binding can be weak or reduced; the word gives no strength. For part of these data: Where a sequence is shown, tags or fusion partners need not be part of it. For part of these data: Binding seen in cells or lysates may run through a third protein.

Columns and labels:
[1] = biological target: T1, HB27-HA (HB27-HA-pET28a protein) (Arabidopsis thaliana) (UniProt Q9FMY7); assay: far-Western, overlay or dot blot; HB27-HA and BSA run on SDS-PAGE, blotted on PVDF, denatured and renatured in AC buffer; membrane incubated with 5 µg purified 2b-MYC in AC buffer without urea overnight at 4 °C; detected with anti-MYC antibody; both purified
T1 sequence: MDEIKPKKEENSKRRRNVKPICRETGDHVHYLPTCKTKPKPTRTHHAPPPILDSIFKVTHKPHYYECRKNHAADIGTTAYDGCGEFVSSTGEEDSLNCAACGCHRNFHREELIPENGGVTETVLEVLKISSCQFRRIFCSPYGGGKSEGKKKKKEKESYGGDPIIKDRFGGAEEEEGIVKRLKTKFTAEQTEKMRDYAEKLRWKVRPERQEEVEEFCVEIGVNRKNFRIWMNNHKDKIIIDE

[2] = biological target: Cucumber mosaic virus 2b protein in pGBKT7 (yeast two-hybrid bait) (Cucumber mosaic virus subgroup II); assay: two-hybrid; one-to-one, GAL4-based: HB27-pGADT7 with 2b-pGBKT7; dilution assay on SD/-LTHA at 30 °C, 5-7 days, and X-gal assay
[3] = biological target: CMV 2b protein fused to the C-terminal half of YFP (Cucumber mosaic virus subgroup II); assay: split reporter; BiFC in N. benthamiana leaf epidermal cells, agroinfiltrated together with P19; YFP read by confocal microscopy 48 h after infiltration

CMV 2b-MYC (CMV2b-MYC-pET28a protein) (Cucumber mosaic virus subgroup II)
binding [1]: binds

B1: HB27 in pGADT7 (yeast two-hybrid prey) (protein, UniProt Q9FMY7 1-242)
chain: MDEIKPKKEENSKRRRNVKPICRETGDHVHYLPTCKTKPKPTRTHHAPPPILDSIFKVTHKPHYYECRKNHAADIGTTAYDGCGEFVSSTGEEDSLNCAACGCHRNFHREELIPENGGVTETVLEVLKISSCQFRRIFCSPYGGGKSEGKKKKKEKESYGGDPIIKDRFGGAEEEEGIVKRLKTKFTAEQTEKMRDYAEKLRWKVRPERQEEVEEFCVEIGVNRKNFRIWMNNHKDKIIIDE
binding [2]: binds

B2: HB27 fused to the N-terminal half of YFP (protein, UniProt Q9FMY7 1-242)
chain: MDEIKPKKEENSKRRRNVKPICRETGDHVHYLPTCKTKPKPTRTHHAPPPILDSIFKVTHKPHYYECRKNHAADIGTTAYDGCGEFVSSTGEEDSLNCAACGCHRNFHREELIPENGGVTETVLEVLKISSCQFRRIFCSPYGGGKSEGKKKKKEKESYGGDPIIKDRFGGAEEEEGIVKRLKTKFTAEQTEKMRDYAEKLRWKVRPERQEEVEEFCVEIGVNRKNFRIWMNNHKDKIIIDE
binding [3]: binds
